Drawing on publication PMC5656322, “BAK1 is involved in AtRALF1-induced inhibition of root cell expansion” (PLoS Genetics, 2017), this text covers binding for 3 molecules.

Chains of the proteins cited; added tags and fusions are not shown. Residues count along the entry.
UniProt Q9FL28, residues 24-806: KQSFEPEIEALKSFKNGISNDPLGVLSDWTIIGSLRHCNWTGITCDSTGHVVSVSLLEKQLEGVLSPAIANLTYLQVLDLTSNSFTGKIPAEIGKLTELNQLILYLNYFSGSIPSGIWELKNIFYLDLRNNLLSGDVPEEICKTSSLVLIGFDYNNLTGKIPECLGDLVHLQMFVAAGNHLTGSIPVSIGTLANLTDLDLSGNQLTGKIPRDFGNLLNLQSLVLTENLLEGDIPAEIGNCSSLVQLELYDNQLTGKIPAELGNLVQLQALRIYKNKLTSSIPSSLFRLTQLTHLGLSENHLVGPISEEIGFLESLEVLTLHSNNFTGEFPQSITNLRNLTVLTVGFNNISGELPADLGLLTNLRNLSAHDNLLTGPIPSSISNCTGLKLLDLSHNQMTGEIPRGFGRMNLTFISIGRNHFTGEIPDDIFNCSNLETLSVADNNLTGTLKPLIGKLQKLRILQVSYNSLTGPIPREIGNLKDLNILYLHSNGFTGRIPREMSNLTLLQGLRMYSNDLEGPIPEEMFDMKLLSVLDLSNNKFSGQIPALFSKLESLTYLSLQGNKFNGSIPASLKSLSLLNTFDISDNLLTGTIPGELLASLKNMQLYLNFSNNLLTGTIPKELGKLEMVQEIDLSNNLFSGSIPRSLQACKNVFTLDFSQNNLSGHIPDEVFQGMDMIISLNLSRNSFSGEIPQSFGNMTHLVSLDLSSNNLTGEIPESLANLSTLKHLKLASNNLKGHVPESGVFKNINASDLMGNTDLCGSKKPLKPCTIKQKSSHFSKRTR

No constants are given. Whether binding was seen depends on the method and setting. For part of these data: Binding seen in cells or lysates may run through a third protein. Some entries that bind do so weakly or less than the wild type. Tags and fused reporters may be left off the sequences shown.

For assay [1], the target named is T1, AtRALF1 mature peptide fused to the GAL4 DNA-binding domain (AtRALF1-pGBKT7) (Arabidopsis thaliana) (UniProt Q9SRY3).
T1 sequence: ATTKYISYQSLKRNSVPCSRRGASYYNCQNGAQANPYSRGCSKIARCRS
The experiment in a line: two-hybrid; RALF peptide fused to the GAL4 DNA-binding domain (pGBKT7) as bait, extracellular domains or truncations fused to the GAL4 activation domain (pGADT7); yeast AH109; growth on synthetic complete medium lacking leucine, tryptophan and histidine.

Assay [2] addresses T2, Entire BAK1 protein fused to GFP (BAK1-GFP) (Arabidopsis thaliana) (UniProt Q94F62).
T2 sequence: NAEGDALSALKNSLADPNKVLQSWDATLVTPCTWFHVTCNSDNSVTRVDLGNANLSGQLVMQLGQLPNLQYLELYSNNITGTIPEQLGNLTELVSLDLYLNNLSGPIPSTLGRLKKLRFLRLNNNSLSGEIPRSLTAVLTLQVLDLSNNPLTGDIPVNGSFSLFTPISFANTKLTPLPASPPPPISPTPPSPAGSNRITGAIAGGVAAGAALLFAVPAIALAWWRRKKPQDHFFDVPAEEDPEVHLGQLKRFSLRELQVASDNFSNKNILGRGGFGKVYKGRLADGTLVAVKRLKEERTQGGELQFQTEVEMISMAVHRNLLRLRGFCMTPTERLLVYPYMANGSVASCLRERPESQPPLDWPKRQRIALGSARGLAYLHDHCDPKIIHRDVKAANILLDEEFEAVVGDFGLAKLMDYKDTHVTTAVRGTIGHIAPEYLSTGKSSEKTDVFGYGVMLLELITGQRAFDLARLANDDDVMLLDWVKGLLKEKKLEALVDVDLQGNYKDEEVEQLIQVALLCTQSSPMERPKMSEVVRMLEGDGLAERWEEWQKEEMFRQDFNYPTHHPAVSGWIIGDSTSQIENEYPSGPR
The experiment in a line: co-IP; microsomal fraction of N. benthamiana leaves expressing BAK1-GFP (0.5% Triton-X) incubated with 600 nM peptide for 1 h at 4 °C; anti-GFP antibody and protein A Sepharose beads; only the binder purified.

Consider “Extracellular domain of FLS2 fused to the GAL4 activation domain (FLS2-ECD, pGADT7) (from UniProt Q9FL28 24-806) (domain or fragment)”, for which the binding entry in assay [1] is given as “no binding”.

B1: Extracellular domain of BAK7 fused to the GAL4 activation domain (BAK7-ECD, pGADT7) (domain or fragment, UniProt Q9SKG5 34-234)
chain: DALTQLKNSLSSGDPANNVLQSWDATLVTPCTWFHVTCNPENKVTRVDLGNAKLSGKLVPELGQLLNLQYLELYSNNITGEIPEELGDLVELVSLDLYANSISGPIPSSLGKLGKLRFLRLNNNSLSGEIPMTLTSVQLQVLDISNNRLSGDIPVNGSFSLFTPISFANNSLTDLPEPPPTSTSPTPPPPSGGQMTAAIAG
On to B1, for which the binding result in assay [1] was “no binding”.
Take ATTKYISYQSLKRNSVPCSRRGASYYNCQNGAQANPYSRGCSKIARCRS (peptide, UniProt Q9SRY3 72-120) [Recombinant His-tagged AtRALF1]: the binding entry in assay [2] is “binds”.
